Assay [1] has as its target flag-tagged Eif4a2^FL (mouse) (UniProt P10630). As to the kind of experiment: affinity purification with mass spectrometry.
Assay [2] deals with flag-tagged Eif4a2^PTC (mouse). The assay can be described thus: affinity purification with mass spectrometry.

Protein sequences, listed by entry. Tags and fused reporters are not part of them.
UniProt P10630: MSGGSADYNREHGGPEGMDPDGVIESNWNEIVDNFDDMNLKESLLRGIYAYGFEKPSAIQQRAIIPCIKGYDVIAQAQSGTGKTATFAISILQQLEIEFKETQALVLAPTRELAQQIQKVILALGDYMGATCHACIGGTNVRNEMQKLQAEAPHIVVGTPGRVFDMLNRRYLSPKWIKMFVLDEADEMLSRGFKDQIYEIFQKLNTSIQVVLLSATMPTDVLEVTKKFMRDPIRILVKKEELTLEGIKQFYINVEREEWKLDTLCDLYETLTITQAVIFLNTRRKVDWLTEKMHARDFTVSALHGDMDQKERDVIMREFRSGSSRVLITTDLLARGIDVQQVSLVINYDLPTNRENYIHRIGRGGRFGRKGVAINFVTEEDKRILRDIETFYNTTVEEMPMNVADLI
UniProt Q8CJG0: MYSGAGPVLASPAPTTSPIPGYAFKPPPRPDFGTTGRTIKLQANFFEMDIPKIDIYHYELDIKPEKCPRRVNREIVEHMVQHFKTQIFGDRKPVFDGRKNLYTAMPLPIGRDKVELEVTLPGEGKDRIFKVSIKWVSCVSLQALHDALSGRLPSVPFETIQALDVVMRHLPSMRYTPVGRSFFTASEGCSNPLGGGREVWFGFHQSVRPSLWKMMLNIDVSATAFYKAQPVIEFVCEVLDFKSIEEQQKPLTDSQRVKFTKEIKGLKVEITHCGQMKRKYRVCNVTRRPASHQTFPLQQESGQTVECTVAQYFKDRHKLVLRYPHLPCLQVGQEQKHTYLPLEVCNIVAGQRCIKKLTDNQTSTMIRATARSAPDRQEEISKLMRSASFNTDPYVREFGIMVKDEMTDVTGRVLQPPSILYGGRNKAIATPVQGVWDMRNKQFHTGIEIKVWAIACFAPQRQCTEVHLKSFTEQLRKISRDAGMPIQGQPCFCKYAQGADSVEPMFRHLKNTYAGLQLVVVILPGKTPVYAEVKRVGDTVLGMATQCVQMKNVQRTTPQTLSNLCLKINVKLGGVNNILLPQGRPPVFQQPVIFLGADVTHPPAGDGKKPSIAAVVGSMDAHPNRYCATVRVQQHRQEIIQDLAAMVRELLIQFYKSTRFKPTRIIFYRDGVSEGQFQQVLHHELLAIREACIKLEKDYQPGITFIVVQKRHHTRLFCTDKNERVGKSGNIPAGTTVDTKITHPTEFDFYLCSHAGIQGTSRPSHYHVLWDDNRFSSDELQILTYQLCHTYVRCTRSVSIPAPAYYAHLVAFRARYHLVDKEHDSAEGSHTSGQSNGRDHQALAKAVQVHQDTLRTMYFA
UniProt P48432: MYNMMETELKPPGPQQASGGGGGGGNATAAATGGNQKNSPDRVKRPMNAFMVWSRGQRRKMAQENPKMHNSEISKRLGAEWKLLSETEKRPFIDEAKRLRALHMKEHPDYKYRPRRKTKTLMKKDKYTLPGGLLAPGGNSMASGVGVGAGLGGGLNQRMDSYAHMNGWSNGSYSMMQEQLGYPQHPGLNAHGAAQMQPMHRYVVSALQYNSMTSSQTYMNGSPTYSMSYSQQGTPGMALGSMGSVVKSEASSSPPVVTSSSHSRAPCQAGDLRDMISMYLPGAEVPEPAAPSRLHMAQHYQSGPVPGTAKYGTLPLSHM
UniProt Q61037: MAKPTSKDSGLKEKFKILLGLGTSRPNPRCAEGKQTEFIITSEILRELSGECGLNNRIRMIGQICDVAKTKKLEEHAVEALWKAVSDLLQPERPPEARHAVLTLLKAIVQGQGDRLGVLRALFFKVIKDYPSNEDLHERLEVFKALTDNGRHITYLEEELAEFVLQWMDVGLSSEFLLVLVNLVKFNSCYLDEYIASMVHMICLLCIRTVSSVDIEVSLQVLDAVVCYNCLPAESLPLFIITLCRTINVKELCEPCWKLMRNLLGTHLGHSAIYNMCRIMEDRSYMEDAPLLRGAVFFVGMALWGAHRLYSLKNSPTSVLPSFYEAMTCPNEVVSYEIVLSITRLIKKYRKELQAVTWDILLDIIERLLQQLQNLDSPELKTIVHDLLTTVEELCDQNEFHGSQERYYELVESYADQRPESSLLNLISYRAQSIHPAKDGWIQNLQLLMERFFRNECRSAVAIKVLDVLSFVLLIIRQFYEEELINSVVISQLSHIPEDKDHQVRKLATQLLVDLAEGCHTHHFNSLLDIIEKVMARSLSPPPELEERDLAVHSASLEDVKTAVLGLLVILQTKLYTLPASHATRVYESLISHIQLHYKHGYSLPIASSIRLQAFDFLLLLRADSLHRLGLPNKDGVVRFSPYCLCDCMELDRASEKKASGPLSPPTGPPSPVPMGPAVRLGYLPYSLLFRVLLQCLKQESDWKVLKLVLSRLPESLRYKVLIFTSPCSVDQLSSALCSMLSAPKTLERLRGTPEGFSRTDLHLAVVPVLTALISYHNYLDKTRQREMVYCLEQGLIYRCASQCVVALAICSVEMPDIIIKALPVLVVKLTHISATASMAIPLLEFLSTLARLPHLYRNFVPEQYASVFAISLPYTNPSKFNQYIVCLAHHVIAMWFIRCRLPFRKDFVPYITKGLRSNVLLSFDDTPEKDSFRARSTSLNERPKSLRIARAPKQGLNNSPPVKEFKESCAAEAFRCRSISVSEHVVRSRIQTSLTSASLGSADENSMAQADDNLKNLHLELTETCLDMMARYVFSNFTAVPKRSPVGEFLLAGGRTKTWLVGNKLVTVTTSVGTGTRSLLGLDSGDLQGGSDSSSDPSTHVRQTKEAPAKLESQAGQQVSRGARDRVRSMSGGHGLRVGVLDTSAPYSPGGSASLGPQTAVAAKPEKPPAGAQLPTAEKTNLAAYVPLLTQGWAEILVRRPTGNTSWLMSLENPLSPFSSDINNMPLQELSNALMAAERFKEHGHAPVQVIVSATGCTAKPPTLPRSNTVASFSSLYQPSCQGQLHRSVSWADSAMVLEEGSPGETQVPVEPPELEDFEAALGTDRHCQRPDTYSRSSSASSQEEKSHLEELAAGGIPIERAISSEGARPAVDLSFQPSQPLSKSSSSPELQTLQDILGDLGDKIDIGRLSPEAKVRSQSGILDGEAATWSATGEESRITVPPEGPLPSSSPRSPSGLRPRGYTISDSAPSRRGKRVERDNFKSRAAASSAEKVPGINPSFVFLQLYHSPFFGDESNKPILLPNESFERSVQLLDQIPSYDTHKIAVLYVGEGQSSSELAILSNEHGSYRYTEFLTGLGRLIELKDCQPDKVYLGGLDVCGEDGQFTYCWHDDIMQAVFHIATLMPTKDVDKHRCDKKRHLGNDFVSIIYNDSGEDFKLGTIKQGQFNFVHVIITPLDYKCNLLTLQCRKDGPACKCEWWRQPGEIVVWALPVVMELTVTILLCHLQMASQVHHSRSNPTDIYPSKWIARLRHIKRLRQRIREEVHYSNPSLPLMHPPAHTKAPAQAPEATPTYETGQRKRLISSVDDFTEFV
UniProt P61406: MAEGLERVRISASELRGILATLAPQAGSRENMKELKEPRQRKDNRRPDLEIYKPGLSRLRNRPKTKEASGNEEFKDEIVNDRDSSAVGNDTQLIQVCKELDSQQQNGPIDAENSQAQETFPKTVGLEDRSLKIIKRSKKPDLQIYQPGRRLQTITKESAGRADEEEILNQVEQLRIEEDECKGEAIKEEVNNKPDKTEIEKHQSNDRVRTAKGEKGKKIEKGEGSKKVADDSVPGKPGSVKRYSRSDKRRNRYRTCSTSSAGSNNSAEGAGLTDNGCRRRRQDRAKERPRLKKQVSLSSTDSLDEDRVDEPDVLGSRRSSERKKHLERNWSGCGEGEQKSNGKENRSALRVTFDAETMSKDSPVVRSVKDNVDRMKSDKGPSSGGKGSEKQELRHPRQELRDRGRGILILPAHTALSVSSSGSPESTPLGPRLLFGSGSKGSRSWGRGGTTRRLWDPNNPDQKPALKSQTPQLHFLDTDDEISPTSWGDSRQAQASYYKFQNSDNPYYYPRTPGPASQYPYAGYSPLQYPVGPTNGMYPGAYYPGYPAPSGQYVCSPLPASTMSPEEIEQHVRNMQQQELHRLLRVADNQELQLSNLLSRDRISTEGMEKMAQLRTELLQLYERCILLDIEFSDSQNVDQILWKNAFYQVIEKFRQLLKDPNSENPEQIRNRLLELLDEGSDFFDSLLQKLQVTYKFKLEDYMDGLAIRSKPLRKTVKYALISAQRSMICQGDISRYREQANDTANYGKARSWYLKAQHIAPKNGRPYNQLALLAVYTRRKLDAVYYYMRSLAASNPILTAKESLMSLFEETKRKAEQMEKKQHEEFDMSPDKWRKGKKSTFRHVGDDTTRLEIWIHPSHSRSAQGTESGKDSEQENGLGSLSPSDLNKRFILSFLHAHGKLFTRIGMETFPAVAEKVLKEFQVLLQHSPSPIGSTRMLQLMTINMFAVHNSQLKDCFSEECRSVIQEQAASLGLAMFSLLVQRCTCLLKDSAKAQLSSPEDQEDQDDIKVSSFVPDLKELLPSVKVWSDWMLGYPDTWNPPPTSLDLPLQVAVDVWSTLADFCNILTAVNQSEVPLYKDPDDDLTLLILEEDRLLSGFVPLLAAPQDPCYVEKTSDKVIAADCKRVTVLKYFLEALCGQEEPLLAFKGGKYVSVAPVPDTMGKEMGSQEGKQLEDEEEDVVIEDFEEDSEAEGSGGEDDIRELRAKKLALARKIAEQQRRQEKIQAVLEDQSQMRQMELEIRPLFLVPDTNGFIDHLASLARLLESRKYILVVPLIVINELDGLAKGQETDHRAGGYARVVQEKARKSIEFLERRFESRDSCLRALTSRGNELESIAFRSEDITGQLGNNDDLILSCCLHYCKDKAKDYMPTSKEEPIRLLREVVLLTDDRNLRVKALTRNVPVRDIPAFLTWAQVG
UniProt Q80U78: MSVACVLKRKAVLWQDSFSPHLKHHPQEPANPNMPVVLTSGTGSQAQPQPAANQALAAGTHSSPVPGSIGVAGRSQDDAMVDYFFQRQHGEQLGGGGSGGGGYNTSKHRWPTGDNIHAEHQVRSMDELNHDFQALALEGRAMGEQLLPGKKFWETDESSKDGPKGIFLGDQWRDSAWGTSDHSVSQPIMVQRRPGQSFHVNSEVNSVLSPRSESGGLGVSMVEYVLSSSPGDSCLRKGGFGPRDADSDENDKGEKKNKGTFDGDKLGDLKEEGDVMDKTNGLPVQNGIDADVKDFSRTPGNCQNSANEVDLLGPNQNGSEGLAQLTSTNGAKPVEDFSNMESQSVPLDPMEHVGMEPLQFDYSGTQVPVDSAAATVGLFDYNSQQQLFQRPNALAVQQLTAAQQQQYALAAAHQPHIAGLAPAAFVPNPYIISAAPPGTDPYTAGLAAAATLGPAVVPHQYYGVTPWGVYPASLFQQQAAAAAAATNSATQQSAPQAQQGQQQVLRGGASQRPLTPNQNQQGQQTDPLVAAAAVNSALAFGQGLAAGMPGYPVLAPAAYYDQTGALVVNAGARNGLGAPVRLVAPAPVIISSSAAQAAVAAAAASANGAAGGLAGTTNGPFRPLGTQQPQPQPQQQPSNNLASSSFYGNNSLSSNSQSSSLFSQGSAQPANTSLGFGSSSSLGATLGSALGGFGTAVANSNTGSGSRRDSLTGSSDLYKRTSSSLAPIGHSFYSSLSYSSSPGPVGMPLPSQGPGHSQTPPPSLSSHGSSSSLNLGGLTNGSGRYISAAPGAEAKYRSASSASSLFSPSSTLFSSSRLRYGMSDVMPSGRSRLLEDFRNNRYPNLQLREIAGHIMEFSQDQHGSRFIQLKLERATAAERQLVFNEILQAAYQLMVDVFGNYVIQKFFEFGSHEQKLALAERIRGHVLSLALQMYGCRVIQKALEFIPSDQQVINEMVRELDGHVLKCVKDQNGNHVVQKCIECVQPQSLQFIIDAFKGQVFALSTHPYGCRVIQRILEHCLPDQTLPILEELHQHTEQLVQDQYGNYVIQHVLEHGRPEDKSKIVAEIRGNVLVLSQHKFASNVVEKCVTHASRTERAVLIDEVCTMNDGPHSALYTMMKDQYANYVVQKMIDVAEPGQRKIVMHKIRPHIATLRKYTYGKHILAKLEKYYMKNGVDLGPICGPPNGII
UniProt P60843: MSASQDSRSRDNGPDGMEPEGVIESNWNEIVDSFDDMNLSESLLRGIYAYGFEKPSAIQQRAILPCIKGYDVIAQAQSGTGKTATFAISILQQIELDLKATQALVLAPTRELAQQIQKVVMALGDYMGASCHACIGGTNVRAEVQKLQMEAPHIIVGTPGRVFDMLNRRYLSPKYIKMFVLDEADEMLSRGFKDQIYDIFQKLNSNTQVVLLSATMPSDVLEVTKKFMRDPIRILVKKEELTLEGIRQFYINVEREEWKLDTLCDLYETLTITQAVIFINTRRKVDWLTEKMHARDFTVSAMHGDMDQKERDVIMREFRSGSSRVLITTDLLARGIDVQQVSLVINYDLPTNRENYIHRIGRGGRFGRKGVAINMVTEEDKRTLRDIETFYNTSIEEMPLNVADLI

These are yes or no findings as the source states them, for the method shown. In cells and extracts the contact can be indirect. These calls come from enrichment with a bait or labelling near it, and not all partners need be listed. For part of these data: A no says only that the protein was not detected with the bait.

On to Ago2 (from UniProt Q8CJG0 1-860), for which the binding result in assay [1] is reported as “binds”.
Take Sox2 (from UniProt P48432 1-319): the binding entry in assay [1] is “binds”.
As to Tsc2 (from UniProt Q61037 1-1814), the binding entry in assay [1] is recorded as “no binding”.
Turning to Smg6 (from UniProt P61406 1-1418), the binding entry in assay [1] is on record as “binds”.
With Raf1 (from UniProt Q99N57 1-648), in assay [1], the binding result was “no binding”.
In the case of Upf1 (from UniProt Q9EPU0 1-1124), the binding result in assay [1] is on record as “binds”.
On the same count and under the same terms, the result for Pum1 (from UniProt Q80U78 1-1189) reads “binds”; that for Eif4a1 (from UniProt P60843 1-406), “no binding”.

B1: Mios (protein, UniProt Q8VE19 1-875)
chain: MSGTKPDILWAPHQVDRFVVCDSELSLYHVESAVNSELKAGSLRLSEDSAATLLSINSDTPYMKCVAWYLNYDPECLLAVGQANGRVVLTSLGQDHNSKFKDLIGKEFVPKHARQCNTLAWNPLDSNWLAAGLDKHRADFSVLIWDICSKYTPDIVPMEKVRLSAGEAETTLLVTKPLYELGQNDASLSLCWLPRDQKLLLAGMHRNLAIFDLRNTSQKMFVNTKAVQGVTVDPYFHDRVASFYEGQVAIWDLRKFEKPVLTLTEQPKPLTKVAWCPTRTGLLATLTRDSNIIRLYDMQHTPTPIGDETEPTIIERSVQPCDNYIASFAWHPTSQNRMIVVTPNRTMSDFTVFERISLAWSPITSLMWACGRHLYECAEEESDNSLEKDIATKMRLRALSRYGLDTEQVWRNHILAGNEDPQLKSLWYTLHFMKQYTEDNDQKSPGNKGSLVYAGIKSIVKSSLGMVESSRHNWSGLDKQTDIQNLNEERILALQLCGWIKKGTDVDVGPFLNSLVQEGEWERAAAVALFNLDIRRAIQILNEGASSEKGDLNLNVVAMALSGYTDEKNSLWREMCSTLRLQLNNPYLCVMFAFLTSEAGAYDGVLYENKVAVRDRVAFACKFLGDAQLNKYIEKLTNEMKEAGNLEGILLTGLTKDGVDLMESYVDRTGDVQTASYCMLQGSPLDVLKDERVQYWIENYRNLLDAWRFWHKRAEFDIHRSKLDPSSKPLAQVFVSCNFCGKSISYSCSSVPHQGRGFSQYGVSGSPTKSKVTSCPGCRKPLPRCALCLINMGTPVSSCPGGSKSDEKVDLSKDKKLAQFNNWFTWCHNCRHGGHAGHMLSWFRDHAECPVSACTCKCMQLDTTGNLVPAETVQP
On to B1, for which the binding entry in assay [2] is given as “binds”; in assay [1], “no binding”.

B2: Wdr59 (protein, UniProt Q8C0M0 1-992)
chain: MAARWSSENVVVEFRDSQATAMSVDCLGQHAVLSGRRFLYIVNLDAPFEGHRKISRQSKWDIGAVQWNPHDSFAHYFAASSNQRVDLYKWKDGSGEVGTTLQGHTRVISDLDWAVFEPDLLVTSSVDTYIYIWDIKDTRKPTVALSAVAGASQVKWNKKNANYLATSHDGDVRIWDKRKPSTAVEYLAAHLSKIHGLDWHPDSEHIFATSSQDNSVKFWDYRQPRKYLNILPCQVPVWKARYTPFSNGLVTVMVPQLRRENSLLLWNASDLNAPVHTFVGHDDVVLEFQWRRQKEGSKDYQLVTWSRDQTLRMWRVDYQMQRLCANDILDGVDEFIESISLLPEPEKTPHPQDIDHQPSLSHGEEDAIKEDPPSSLLEEKRSDQLGLPQTLQQEFSLINVQIRNVNVEMDAADRSCTVSVHCSNHRVKMLVTFPAQYPNNAAPSFQFINPTTITSAVKAKLLKILKDTSLQKVKRNQSCLEPCLRQLVSCLESFVNQEDSASSNPFALQNSVTPPLPTFARVTTAYGSYQDANIPFPRTSGARFCGAGYLVYFTRPMTMHRAVSPTEPTPRSLSALSAYHTGLIAPMKIRTEAPGNLRLYSGSPTRSEKEQVSISSFYYKERKSRRWKSKREGSDSGNRPIKAAGKVIIQDVSCLLPVHKSLGELYILNVNDTQETCQKNATSAMLVGRKDLVQVWSLATVATDLCLGPKSDPDLETPWARHPFGRQLLESLWGDRESTRVCGPPLSGARLAHYCQLRDVQTLAMLCSVFEAQSRPQGLPNPFGPFPNRSSNLVVSHSRYPSFTSSGSCSSMSDPGFNTGGWNIAGRETEHISSPWGESSPEELRFGSLTYSDPRERERDQHDKNKRLLDPANTQQFDDFKKCYGEILYRWGLREKRAEVLKFVSCPPDPHKGIEFGVYCSHCRSEVRGTQCAICKGFTFQCAICHVAVRGSSNFCLTCGHGGHTSHMMEWFRTQEVCPTGCGCHCLLESTF
Take B2: the binding entry in assay [2] and in assay [1] was “binds” in each case.

B3: Trim71 (protein, UniProt Q1PSW8 1-855)
chain: MASFPETDFQICLLCKEMCGSPAPLSSNSSASSSSSQTSTSSAGGGGPGAAARRLHVLPCLHAFCRPCLEAHRLPAPGGAGPAEALKLRCPVCDQKVVLAEAAGMDALPSSAFLLSNLLDAVVATAEEPPPKNGRAGGGPGGAGGHSNHRHHAHHPAQRAAAPAPQPPPGPAASPGSLLMRRPHGCSSCDEGNAASSRCLDCQEHLCDNCVRAHQRVRLTKDHYIERGPPGPAAASAAQQLGLGPPFAGAPFSILSVFPERLGFCQHHDDEVLHLYCDTCSVPICRECTLGRHGGHSFAYLQDALQDSRALTIQLLADAQQGRQALQLSIEQAQTVAEQVEMKAKVVQSEVKAVTARHKKALEDRECELLWKVEKIRQVKAKSLFLQVEKLRQSLSKLESTISAVQQVLEEGRALDILLARDRMLAQVQELKTIRGLLQPQEDDRIMFTPPDQALYLALKSIGFVSSGAFAPLTKATGDGIKRALQGKVASFTVMGYDHDGEPRHSGGDLMSVVVLGPDGNLFGAEVSDQQNGTYIVSYRPQLEGEHLVSVTLYNQHIENSPFKVVVKSGRSYVGIGLPGLSFGSEGDGEGKLCRPWGVSVDKEGFIIVADRSNNRIQVFKPCGSFHHKFGTLGSRPGQFDRPAGVACDASRRIIVADKDNHRIQIFTFEGQFLLKFGEKGTKNGQFNYPWDVAVNSEGKILVSDTRNHRIQLFGPDGVFLNKYGFEGSLWKHFDSPRGVAFNNEGHLVVTDFNNHRLLVIHPDCQSARFLGSEGSGNGQFLRPQGVAVDQEGRIIVADSRNHRVQMFEANGSFLCKFGAQGSGFGQMDRPSGIAVTPDGLIVVVDFGNNRILIF
As for B3, the binding entry in assay [2] and in assay [1] was “binds” each time.

B4: Ogt (protein, UniProt Q8CGY8 1-1046)
chain: MASSVGNVADSTEPTKRMLSFQGLAELAHREYQAGDFEAAERHCMQLWRQEPDNTGVLLLLSSIHFQCRRLDRSAHFSTLAIKQNPLLAEAYSNLGNVYKERGQLQEAIEHYRHALRLKPDFIDGYINLAAALVAAGDMEGAVQAYVSALQYNPDLYCVRSDLGNLLKALGRLEEAKACYLKAIETQPNFAVAWSNLGCVFNAQGEIWLAIHHFEKAVTLDPNFLDAYINLGNVLKEARIFDRAVAAYLRALSLSPNHAVVHGNLACVYYEQGLIDLAIDTYRRAIELQPHFPDAYCNLANALKEKGSVAEAEDCYNTALRLCPTHADSLNNLANIKREQGNIEEAVRLYRKALEVFPEFAAAHSNLASVLQQQGKLQEALMHYKEAIRISPTFADAYSNMGNTLKEMQDVQGALQCYTRAIQINPAFADAHSNLASIHKDSGNIPEAIASYRTALKLKPDFPDAYCNLAHCLQIVCDWTDYDERMKKLVSIVAEQLEKNRLPSVHPHHSMLYPLSHGFRKAIAERHGNLCLDKINVLHKPPYEHPKDLKLSDGRLRVGYVSSDFGNHPTSHLMQSIPGMHNPDKFEVFCYALSPDDGTNFRVKVMAEANHFIDLSQIPCNGKAADRIHQDGIHILVNMNGYTKGARNELFALRPAPIQAMWLGYPGTSGALFMDYIITDQETSPAEVAEQYSEKLAYMPHTFFIGDHANMFPHLKKKAVIDFKSNGHIYDNRIVLNGIDLKAFLDSLPDVKIVKMKCPDGGDNPDSSNTALNMPVIPMNTIAEAVIEMINRGQIQITINGFSISNGLATTQINNKAATGEEVPRTIIVTTRSQYGLPEDAIVYCNFNQLYKIDPSTLQMWANILKRVPNSVLWLLRFPAVGEPNIQQYAQNMGLPQNRIIFSPVAPKEEHVRRGQLADVCLDTPLCNGHTTGMDVLWAGTPMVTMPGETLASRVAASQLTCLGCLELIAKSRQEYEDIAVKLGTDLEYLKKIRGKVWKQRISSPLFNTKQYTMELERLYLQMWEHYAAGNKPDHMIKPVEVTESA
Consider B4, for which the binding result in assay [2] and in assay [1] was “binds” throughout.

B5: Nr0b1 (Dax1) (protein, UniProt Q61066 1-472)
chain: MAGEDHPWQGSILYNLLMSAKQKHASQEEREVRLGAQCWGCACGAQPVLGGERLSGGQARSLLYRCCFCGENHPRQGGILYSMLTNARQPSVATQAPRARFGAPCWGCACGSAEPLVGREGLPAGQAPSLLYRCCFCGEEHPRQGSILYSLLTSAQQTHVSREAPEAHRRGEWWQLSYCTQSVGGPEGLQSTQAMAFLYRSYVCGEEQPQQISVASGTPVSADQTPATPQEQPRAPWWDASPGVQRLITLKDPQVVCEAASAGLLKTLRFVKYLPCFQILPLDQQLVLVRSCWAPLLMLELAQDHLHFEMMEIPETNTTQEMLTTRRQETEGPEPAEPQATEQPQMVSAEAGHLLPAAAVQAIKSFFFKCWSLNIDTKEYAYLKGTVLFNPDLPGLQCVKYIEGLQWRTQQILTEHIRMMQREYQIRSAELNSALFLLRFINSDVVTELFFRPIIGAVSMDDMMLEMLCAKL
For the molecule B5, the binding entry in assay [2] and in assay [1] was “binds” throughout.

The values are drawn from doi:10.1101/2020.07.07.180133.
